Test results taken from paper PMC4597190.

Sequences of proteins named here, by UniProt entry; tags and fusion partners are left off.
UniProt P34152: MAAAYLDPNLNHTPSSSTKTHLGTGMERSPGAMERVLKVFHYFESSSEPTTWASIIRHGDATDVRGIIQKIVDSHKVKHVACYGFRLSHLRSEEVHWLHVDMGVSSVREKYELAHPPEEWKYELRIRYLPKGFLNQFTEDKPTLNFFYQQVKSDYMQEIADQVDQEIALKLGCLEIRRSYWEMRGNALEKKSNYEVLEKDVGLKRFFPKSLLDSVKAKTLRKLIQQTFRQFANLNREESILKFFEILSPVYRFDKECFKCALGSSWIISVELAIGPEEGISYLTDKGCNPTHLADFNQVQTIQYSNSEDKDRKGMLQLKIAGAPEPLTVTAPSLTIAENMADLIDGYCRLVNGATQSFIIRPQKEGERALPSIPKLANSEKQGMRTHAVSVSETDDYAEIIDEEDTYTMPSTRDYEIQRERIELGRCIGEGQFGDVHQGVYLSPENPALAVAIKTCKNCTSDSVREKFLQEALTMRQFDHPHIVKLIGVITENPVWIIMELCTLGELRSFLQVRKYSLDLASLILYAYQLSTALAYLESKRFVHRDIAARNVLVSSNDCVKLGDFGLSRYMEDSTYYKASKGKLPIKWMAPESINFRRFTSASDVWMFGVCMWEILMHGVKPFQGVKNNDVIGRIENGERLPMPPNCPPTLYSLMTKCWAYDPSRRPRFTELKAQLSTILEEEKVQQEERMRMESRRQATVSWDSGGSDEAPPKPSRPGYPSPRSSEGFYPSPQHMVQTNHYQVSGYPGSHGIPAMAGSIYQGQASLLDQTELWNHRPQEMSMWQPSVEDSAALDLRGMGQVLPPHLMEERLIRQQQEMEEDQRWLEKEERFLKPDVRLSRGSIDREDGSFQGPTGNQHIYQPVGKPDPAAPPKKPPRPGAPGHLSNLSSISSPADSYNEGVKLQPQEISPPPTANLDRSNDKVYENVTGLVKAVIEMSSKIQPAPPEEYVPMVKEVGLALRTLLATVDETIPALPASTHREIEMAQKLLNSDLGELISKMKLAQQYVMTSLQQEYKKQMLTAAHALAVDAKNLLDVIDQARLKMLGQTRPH

Target: Focal adhesion kinase (FAK), wild-type, re-expressed in FAK-deficient SCC cells (UniProt P34152)
Experiment: affinity purification with mass spectrometry; FAK immunoprecipitation from purified nuclear extracts, on-bead digestion, quantitative label-free LC-MS/MS; SCC FAK-WT over SCC FAK-/- controls

B1: TAF12, TBP-associated factor, component of the TFIID complex (protein, UniProt Q8VE65 1-161)
chain: MNQFGPSALINLSSFSSVKPEPASTPPQGSMANSTTVGKIAGTPGTGGRLSPENNQVLTKKKLQDLVREVDPNEQLDEDVEEMLLQIADDFIESVVTAACQLARHRKSSTLEVKDVQLHLERQWNMWIPGFGSEEIRPYKKACTTEAHKQRMALIRKTTKK
  binding: binds

These are yes or no findings as the source states them, for the method shown. In cells and extracts the contact can be indirect. These calls come from enrichment with a bait or labelling near it, and not all partners need be listed.
